# Results of single-concentration screens

The values are deposited in ChEMBL (CHEMBL3988442, “University of Dundee, Small-Polar-MMV Screening Library” (2021)).

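Whole-parasite assay of Trypanosoma brucei over 72 hours; the read-out is not stated. Compounds at 30 µM. The record gives no direction; compounds that gave an IC50 in retests scored well above the rest, so higher reads as stronger inhibition. Values scatter widely below zero; nearly all retest evidence comes from the higher of the two concentrations used. Of about 64,000 compounds tested this way, about 940 (1.5%) reached 50% or more in at least one test.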

Results are given as percent effect. How 0% and 100% were set is not recorded. Most values in the screen are low, and negative values occur. The compounds are a random part of those screened.

For CC(C)C(=O)N1CCCc2c(cnn2-c2ccccc2)C1 the result was -13.67%. For Cn1nc(C(=O)NC2CC2)cc1NC(=O)C1CC1 the result was 8.805%. With O=C(NCCN1C(=O)CCC1=O)c1nc2ccccc2c(=O)[nH]1 the screen gave -17.94%. Result for O=C(COCc1nc(-c2ccncc2)no1)N1CCCCCC1 was 43.09%. For Nc1no[n+]([O-])c1C(=O)NCc1ccco1 the result was -21.15%. O=C(NCc1cc[nH]n1)N(CCCO)C1CCc2ccccc21 (configuration not stated) read -6.642%. With CCN(CC)Cc1cc(C(=O)N2CCC3(CCN(C)CC3)C2)c(C)o1 the screen gave -39.83%. Result for Cc1ccc(N2CCc3sc(C(=O)N4CCOCC4)cc32)nn1 was -27.02%.

[H][C@@]12CCN(C(=O)c3ccc(-c4ccccc4)[nH]3)C[C@@]([H])(CC1)N2C read 99.15%. For O=C(O)CCC(=O)Nc1nn(Cc2ccccc2Cl)cc1Cl the result was -10.93%. Result for CN1CCCc2c1nc1c(c2N)CCCC1.O=C(O)C(=O)O was 6.357%. For Cc1ccc(C(=O)NS(=O)(=O)c2ccccc2F)c(=O)[nH]1 the result was -10.65%. COc1cc2[nH]c(=O)c(CN3CCCC3C)cc2c(OC)c1OC (configuration not stated) gave 15.12%. Result for O=C1CCNc2ncc(-c3cccc(Cl)c3)cc2CN1C1CC1 was 13.57%. Result for O=C(NC1CCC1)C1=NOC2(CCN(Cc3ccc(F)cc3)C2)C1 (configuration not stated) was -23.95%. With Cc1nc(N(C)C)nc(C)c1NC(=O)c1ccco1 the screen gave 4.215%.

CCN(Cc1ccoc1)C(C(N)=O)c1cccc(Br)c1 (configuration not stated) gave -5.13%. Result for Cc1ncsc1C(=O)N1CCC(Nc2cccnn2)CC1 was -4.539%. For Cn1ccc2ccc(C(=O)N3CCN(C(=O)OC(C)(C)C)CC3)cc21 the result was -32.74%. CN1CCN(Cc2ccsc2)Cc2cccnc21 gave 19.52%. Cc1cccc(N2CC3(CCN(c4nncs4)C3)CC2=O)c1 (configuration not stated) read -60.4%. With CC(C)c1sc(Cl)nc1C(=O)N1CCN(c2ccccc2)CC1 the screen gave -19.76%. CCS(=O)(=O)CC(=O)NC(c1ccccc1)C1CCCC1 (configuration not stated) gave -11.33%. For CCc1ccc(OCC(O)CN2CCC(O)CC2)cc1 (configuration not stated) the result was -37.14%.

O=C(CN1CCCCC1Cn1cccn1)NC1CCOCC1 (configuration not stated) gave -30.2%. CSc1ccc(-c2cc(CN)nc3ccnn23)cc1.Cl gave 8.382%. For CN1C[C@@H](C(=O)N2CCCOCC2)[C@@]2(CCc3ccccc3C(=O)N2)C1 the result was -2.751%. For CC(=O)Nc1nc(C(=O)NCc2ccc(N3CCCC3)nc2)cs1 the result was -8.653%. With CCC(NS(=O)(=O)c1ccc(C(=O)NC2CC2)cc1)c1ccnn1C (configuration not stated) the screen gave -26.17%. Result for O=C(NCC1(O)CCC1)c1c(O)cc(Cl)cc1Cl was -12.88%. CCOCCOC(C)C(=O)NCc1cn2cc(Br)ccc2n1 (configuration not stated) read 14.67%. Cc1cc(OCc2ccc(C(=O)O)s2)ccc1Cl gave -30.92%.

CC(C)C(=O)NS(=O)(=O)c1ccc(C#N)cc1C(F)(F)F gave -6.557%. O=C(CC1CC1)N1CCC2(CC1)CN(c1ccsc1)C(=O)CO2 gave -90.81%. COc1cccc(-n2nnc(C(=O)N3CCOC(C)C3)c2C)c1 (configuration not stated) read -6.37%. For COC(=O)C1CCN(CC2(c3ccc(C)cn3)CCNCC2)CC1 the result was -32.36%. CC(C)c1ccc(S(=O)(=O)NC2(CC(N)=O)CCC2)cc1 read -11.16%. Result for CCc1ccc(CN2CCCn3c(nc(Cn4ccnc4)cc3=O)C2)o1.O=C(O)C(F)(F)F.O=C(O)C(F)(F)F was -8.719%. Cl.O=C1CC2(CCNCC2)C(=O)N1c1cccc(F)c1 gave 11.09%. Fc1ccc(OCC2CCCO2)c(NCc2cn3cccnc3n2)c1 (configuration not stated) read -88.59%.

Result for CN(Cc1ccc(-n2cccn2)cc1)C(=O)CCC(F)(F)F was -13.87%. For Cc1ccc(CN(C)c2cc(N3CCCC3CO)ncn2)s1 (configuration not stated) the result was -6.194%. CCC1(CO)CCN(C(=O)c2cc(COc3ccccc3F)[nH]n2)CC1 gave -3.3%. Cc1ccc(CN2CCc3c(CN(C)C)n[nH]c3C2)s1.O=C(O)C(F)(F)F.O=C(O)C(F)(F)F read -9.341%. For CC(NC(C)(C)CN)c1ccccc1 (configuration not stated) the result was -12.03%. COCCCC(=O)NS(=O)(=O)c1ccc2c(c1)OCCCO2 gave -69.95%. Result for CC(NCCCn1ccnc1)c1ccc(N2CCCS2(=O)=O)cc1 (configuration not stated) was -110.5%.

3 of the entries, repeated:

| Compound | effect |
|---|---|
| `O=C(CN1CCCCC1Cn1cccn1)NC1CCOCC1` (configuration not stated) | -30.2% |
| `Cc1nc(N(C)C)nc(C)c1NC(=O)c1ccco1` | 4.215% |
| `Cc1ccc(CN2CCc3c(CN(C)C)n[nH]c3C2)s1.O=C(O)C(F)(F)F.O=C(O)C(F)(F)F` | -9.341% |